The results in this text go back to PubChem BioAssay AID445 (National Center for Advancing Translational Sciences (NCATS), 2006).

Some of the results follow. These are further read-outs of the screen, such as a control signal, another cell line or another target. No call is given for them. Most of these compounds were active or inconclusive in the main read-out, so they are no random draw. Potencies come from curve fits of mixed quality, noted in brackets.

This experiment in a line: IkB Signaling. The following applies: ABC-DLBCL IkBa-CBG/CBR dual luciferase ratio (green luciferase fused to IkBa over red control in OCI-Ly3 lymphoma cells), 4 h; measured here: control luc red channel unless noted. An outline of the steps: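 Curves were fitted separately to fusion (green), unfused (red) and ratio luminescence, then classed by r2, magnitude and activity. Cells: OCI-Ly3, 4 h compound plus doxycycline at 37C; 10 uM MG-132 defined full response.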
As to `Cc1nc2nc(SCC(=O)NCCc3ccc(Cl)cc3)nn2c(C)c1Cc1c(F)cccc1Cl`, the AC50 was 25.1 µM [falling, partial curve].
Take `Cc1ccc(NC(=O)C2CCCN2S(=O)(=O)c2ccc3c(c2)n(C)c(=O)c(=O)n3C)cc1` (stereo not given): the AC50 is 0.316 µM [falling, full curve].
For `Cc1ccc(-n2ncc3c(N4CCN(Cc5ccccc5)CC4)ncnc32)cc1C`, the AC50 is 12.6 µM [falling, partial curve].
To `Cc1oc(-c2ccccc2F)nc1Cn1c(SCc2cccc(Cl)c2)nc2ccncc21` belongs 12.6 µM [falling, partial curve]; to `CCOCCc1nn2c(=O)cc(COC(=O)c3ccccc3Br)nc2s1`, 39.8 µM [falling, single point]; to `O=C(Nc1ccc(F)cc1)N1CCN(c2nc3ccccc3s2)CC1`, 10 µM [falling, partial curve].
As for `O=C(NCCc1csc(-c2ccc(C(F)(F)F)cc2)n1)c1ccccc1Cl`, the AC50 is 0.1 µM [falling, full curve, poor fit].
`Cc1ccc(S(=O)(=O)c2c(C)nn(C(C)(C)C)c2OC(=O)c2ccc(Br)o2)cc1`: the AC50 is 7.94 µM [falling, full curve].
To `CCCn1c(=N)c(C(=O)NCc2ccccc2)cc2c(=O)n3cccc(C)c3nc21` belongs 3.16 µM [rising, partial curve]; to `Oc1c(C(c2cccc(Cl)c2)N2CCOCC2)sc2nc(-c3ccco3)nn12` (stereo not given), 5.01 µM [rising, full curve]; to `O=C(COc1ccc(F)cc1)NCc1ccc2c(c1)CCN2C(=O)c1ccc(F)cc1`, 10 µM [falling, partial curve, poor fit].
With `Cc1ccc(C)c(N2CCN(c3nc4ccccc4n4nnnc34)CC2)c1`, the concentration at half-maximal activity (AC50) is 0.501 µM [falling, full curve].
Consider `O=C(Nc1ccc(F)c(Cl)c1)C1CCN(c2ncccn2)CC1`, for which the concentration at half-maximal activity (AC50) is 31.6 µM [falling, single point].
With `Cc1cccc(OCC(=O)Nc2ccc(S(=O)(=O)N(Cc3ccccc3)c3ccccc3)cc2)c1`, the concentration at half-maximal activity (AC50) is 0.1 µM [falling, full curve].
To `COC(=O)c1ccccc1NC(=O)C1CCCN(C(=O)c2cnn(-c3ccc(F)cc3)c2-n2cccc2)C1` (stereo not given) belongs 31.6 µM [falling, single point].
With `CCc1nn(CC(=O)NCC(C)c2ccccc2)c(=O)c2cc3c(OC)cccc3n12` (stereo not given), the AC50 was 20 µM [falling, single point].
As to `COCCn1c(=O)[nH]c2cc(C(=O)N3CCN(c4ccc(F)cc4)CC3)ccc2c1=O`, the AC50 is 3.16 µM [falling, full curve].
Consider `Cc1cc(Br)cc(C)c1OCC(=O)Nc1ccc(S(=O)(=O)Nc2ncccn2)cc1`, for which the AC50 is 3.98 µM [rising, single point].
To `COc1cccc(-c2csc(N3CCN(C(=O)C4CCCCC4)CC3)n2)c1` belongs 31.6 µM [falling, partial curve]; to `CCOc1ccccc1Nc1nnc(SCC(=O)N2CCCC2)s1`, 2 µM [falling, partial curve].
In the case of `Clc1ccc(-c2nnn3c2nc(N2CCCCC2)c2ccccc23)cc1`, the half-maximal activity concentration (AC50) was 0.1 µM [falling, full curve].
`O=S(=O)(c1ccc2c(c1)C(=NO)c1cc(S(=O)(=O)N3CCCCC3)ccc1-2)N1CCCCC1`: the AC50 is 7.94 µM [falling, single point] [measured here: IkB-luc green channel].
As for `CCOc1ccc(NC(=O)c2cnn3c2NC(c2ccccc2)=CC3c2cccc(OC)c2OC)cc1` (stereo not given), the AC50 is 25.1 µM [falling, single point].
The result for `Cc1ccccc1NC(=O)c1cc2ccccc2o1` reads 5.01 µM [falling, partial curve]; that for `COc1ccc(CCNC(=O)c2cc(-c3ccccc3)on2)cc1OC`, 15.8 µM [falling, partial curve]; that for `COc1ccc(CCNC(=O)Cc2c(C)c3ccc(O)c(C)c3oc2=O)cc1OC`, 25.1 µM [falling, partial curve].
As to `CCOc1ccc(C2=C(C(C)=O)Sc3nnc(C)n3N2C(C)=O)cc1`, the AC50 is 31.6 µM [rising, single point] [measured here: IkB-luc green channel].
For the compound `Cc1ccc(C(=O)N2CCc3cc(CNC(=O)c4ccccc4F)ccc32)cc1`, the AC50 was 25.1 µM [falling, single point].
Take `COc1cccc(OC)c1OCCNC[C@@H]1COc2ccccc2O1`: the AC50 is 39.8 µM [falling, single point].
Consider `COc1cc(Cl)c(C)cc1NC(=O)Cn1cnc2sc(C)c(S(=O)(=O)N3CCCCC3)c2c1=O`, for which the concentration at half-maximal activity (AC50) is 12.6 µM [falling, partial curve].
On to `CN(CC(=O)NCc1ccc(Cl)cc1)S(=O)(=O)c1ccc2c(c1)c(=O)n(C)c(=O)n2C`, for which the half-maximal activity concentration (AC50) is 7.94 µM [falling, single point].
The result for `CCOc1ccccc1NC(=O)Cn1c(=O)n(-c2ccc(C)c(C)c2)c(=O)c2c(C)c(C(=O)N(C)C)sc21` reads 3.98 µM [rising, single point]; that for `CC(Nc1ncnc2c1cnn2-c1cccc(Cl)c1)c1ccccc1` (stereo not given), 10 µM [falling, partial curve]; that for `COc1cccc(-c2nnc(SCC(=O)N3CCc4ccccc43)o2)c1`, 0.0158 µM [falling, full curve].
`COc1ccc(C2CC(=O)N(Cc3cccc(C)c3)c3c2c(C)nn3-c2nc(C)cc(C)n2)c(OC)c1` (stereo not given): the AC50 was 12.6 µM [falling, partial curve].
In the case of `COC(=O)c1sc2cccc(F)c2c1S(=O)(=O)NCc1ccc(F)cc1`, the AC50 was 0.794 µM [falling, full curve].
To `CCOC(=O)c1cnc2c(Cl)c(Cl)ccc2c1Nc1ccc(N(C)C)cc1` belongs 15.8 µM [falling, partial curve].
Turning to `Cc1ccccc1-n1c(=O)c2ccccc2n(Cc2ccc(F)cc2)c1=O`, the half-maximal activity concentration (AC50) is 20 µM [falling, single point].
In the case of `O=C(Nc1ccc(F)cc1)c1ncn(-c2ccccc2)n1`, the AC50 was 0.501 µM [falling, full curve].
For the compound `COc1ccc(CNC(=O)Cc2nn(C)c(=O)c3ccccc23)cc1`, the AC50 is 12.6 µM [falling, partial curve].
